Laboratory results published in patent US20090304823A1, “NUTRITIONAL COMPOSITIONS FOR PROMOTION OF BONE GROWTH AND MAINTENANCE OF BONE HEALTH AND METHODS REGARDING SAME” (NESTEC S.A., priority 2006, published 2009).
At least one compound was matched to its structure with a doubt left.

Columns and labels:
Assay type in all cases: cell-based
[1] = tested on: neonatal murine calvarial bones; test: Calvaria organ culture in vitro, bone formation
Experimental: (v) Final injection in vivo of “hit” extract into mouse calvaria bones and monitoring of bone area and thickness. Extracts were assessed in a 4-day in vitro neonatal murine calvarial assay. Bones were incubated with the extracts for the entire 4 days.

OPG/RANKL = test: Osteoblast/osteoclast co-culture system, cytokine regulation
Experimental: For example, at least 3 phenolics (e.g. eupafolin, carnosol, scutellarein) may contribute to the anabolic potential of the rosemary extract. Additional phenolics of rosemary include genkwanin, kaempferol, acacetin. The rosemary plant extracts and pure compounds were tested in an osteoblast/osteoclast co-culture system.

BMP-2 = BMP-2 gene reporter assay (high throughput screen); settings: compounds isolated from rosemary extract 2188
Experimental: BMP-2 gene reporter assay (high throughput screen) (i) BMP-2 high throughput gene reporter assay of non-hydrolyzed MeOH/H2O extracts (1a) and corresponding glycosidase hydrolyzed extract in ethyl acetate (1b). Extracts were tested twice at concentrations of 1 to 100 μg/ml, diluted in culture medium from plant extract stocks prepared as 50 mg/ml in DMSO. (ii) Extracts positive in the BMP-2 screen were prepared de novo and screened again with dose-response to confirm as “hits”. (iii) BMP-2 testing of subfractionation of positives/hits and candidate pure compounds

[2] = concentration not printed (phenolics tested at 1-10 μM)

| SMILES | Bone formation in organ culture [1, 2] | Bone formation in organ culture ([1]; 2.5 μM) | Bone formation in organ culture ([1]; 5, 10 μM) | regulation of the key cytokines controlling bone remodelling, OPG/RANKL (OPG/RANKL) | BMP- Activity (BMP-2) |
| --- | --- | --- | --- | --- | --- |
| COc1ccc(-c2cc(=O)c3c(O)cc(O)cc3o2)cc1 [Acacetin] | none |  |  |  |  |
| O=c1cc(-c2ccc(O)cc2)oc2cc(O)c(O)c(O)c12 [IX, Scutellarein] |  | None at 2.5 μM | Some at 5, 10 μM | activity for regulation | YES |
| COc1cc(O)c2c(=O)cc(-c3ccc(O)cc3)oc2c1 [V, Genkwanin] | none |  |  |  | YES |
